Test results published in paper PMC10823351.
These are yes or no findings as the source states them, for the method shown. Binding seen in cells or lysates may run through a third protein. Binding can be weak; no strength is given. Blank lines part the entries; values can stand above or below the molecule they belong to.

What was measured:
[1] = molecular target: T1, Ubiquitin-specific protease 38 (mouse (endogenous in HL-1)) (UniProt Q8BW70); assay: co-IP; endogenous proteins; lysates of HL-1 cells treated with Ang II (1 μM) for 48 h; incubated overnight at 4 °C with anti-USP38, anti-NF-κB or anti-IgG antibodies, magnetic beads, western blot
T1 sequence: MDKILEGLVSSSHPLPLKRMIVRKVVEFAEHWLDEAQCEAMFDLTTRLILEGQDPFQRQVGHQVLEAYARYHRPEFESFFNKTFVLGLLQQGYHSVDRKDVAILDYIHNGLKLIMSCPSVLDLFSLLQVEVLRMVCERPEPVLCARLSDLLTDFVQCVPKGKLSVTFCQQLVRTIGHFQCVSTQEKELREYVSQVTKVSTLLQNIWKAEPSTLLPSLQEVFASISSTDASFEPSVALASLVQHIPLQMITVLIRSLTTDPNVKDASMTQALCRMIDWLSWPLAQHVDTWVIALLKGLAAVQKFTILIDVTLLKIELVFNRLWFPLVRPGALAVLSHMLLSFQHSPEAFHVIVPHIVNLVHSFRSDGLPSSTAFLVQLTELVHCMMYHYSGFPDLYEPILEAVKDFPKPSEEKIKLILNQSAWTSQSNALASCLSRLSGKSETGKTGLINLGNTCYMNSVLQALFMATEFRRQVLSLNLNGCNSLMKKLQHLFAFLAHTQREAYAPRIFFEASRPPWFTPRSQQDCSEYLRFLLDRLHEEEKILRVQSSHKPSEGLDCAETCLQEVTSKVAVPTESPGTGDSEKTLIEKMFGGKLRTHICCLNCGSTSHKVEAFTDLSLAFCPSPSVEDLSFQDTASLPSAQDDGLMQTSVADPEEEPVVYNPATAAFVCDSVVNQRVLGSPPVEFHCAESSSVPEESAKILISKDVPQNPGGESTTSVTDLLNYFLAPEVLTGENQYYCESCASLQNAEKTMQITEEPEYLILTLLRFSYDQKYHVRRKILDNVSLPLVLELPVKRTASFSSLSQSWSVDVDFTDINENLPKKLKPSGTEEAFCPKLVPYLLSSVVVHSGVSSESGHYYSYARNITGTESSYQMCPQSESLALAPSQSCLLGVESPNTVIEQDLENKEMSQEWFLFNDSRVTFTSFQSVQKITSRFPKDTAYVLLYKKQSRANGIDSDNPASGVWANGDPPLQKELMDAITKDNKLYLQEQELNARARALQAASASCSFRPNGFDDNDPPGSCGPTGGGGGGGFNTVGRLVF

[2] = molecular target: nuclear factor-kappa B (mouse (endogenous in HL-1)); assay: as above

- binding [1]: binds
Molecule: nuclear factor-kappa B (mouse (endogenous in HL-1))

- binding [2]: binds
B1: Ubiquitin-specific protease 38 (enzyme, UniProt Q8BW70 1-1042)
chain: T1 sequence
